Test results reported in patent publication US8143259B2, “Cold menthol receptor antagonists” (Janssen Pharmaceutica, NV, priority 2008, dated 2012).

Sequences of proteins named here, by UniProt entry; tags and fusion partners are left off. Residues count along the entry.
UniProt Q1A7N1, 1-1104: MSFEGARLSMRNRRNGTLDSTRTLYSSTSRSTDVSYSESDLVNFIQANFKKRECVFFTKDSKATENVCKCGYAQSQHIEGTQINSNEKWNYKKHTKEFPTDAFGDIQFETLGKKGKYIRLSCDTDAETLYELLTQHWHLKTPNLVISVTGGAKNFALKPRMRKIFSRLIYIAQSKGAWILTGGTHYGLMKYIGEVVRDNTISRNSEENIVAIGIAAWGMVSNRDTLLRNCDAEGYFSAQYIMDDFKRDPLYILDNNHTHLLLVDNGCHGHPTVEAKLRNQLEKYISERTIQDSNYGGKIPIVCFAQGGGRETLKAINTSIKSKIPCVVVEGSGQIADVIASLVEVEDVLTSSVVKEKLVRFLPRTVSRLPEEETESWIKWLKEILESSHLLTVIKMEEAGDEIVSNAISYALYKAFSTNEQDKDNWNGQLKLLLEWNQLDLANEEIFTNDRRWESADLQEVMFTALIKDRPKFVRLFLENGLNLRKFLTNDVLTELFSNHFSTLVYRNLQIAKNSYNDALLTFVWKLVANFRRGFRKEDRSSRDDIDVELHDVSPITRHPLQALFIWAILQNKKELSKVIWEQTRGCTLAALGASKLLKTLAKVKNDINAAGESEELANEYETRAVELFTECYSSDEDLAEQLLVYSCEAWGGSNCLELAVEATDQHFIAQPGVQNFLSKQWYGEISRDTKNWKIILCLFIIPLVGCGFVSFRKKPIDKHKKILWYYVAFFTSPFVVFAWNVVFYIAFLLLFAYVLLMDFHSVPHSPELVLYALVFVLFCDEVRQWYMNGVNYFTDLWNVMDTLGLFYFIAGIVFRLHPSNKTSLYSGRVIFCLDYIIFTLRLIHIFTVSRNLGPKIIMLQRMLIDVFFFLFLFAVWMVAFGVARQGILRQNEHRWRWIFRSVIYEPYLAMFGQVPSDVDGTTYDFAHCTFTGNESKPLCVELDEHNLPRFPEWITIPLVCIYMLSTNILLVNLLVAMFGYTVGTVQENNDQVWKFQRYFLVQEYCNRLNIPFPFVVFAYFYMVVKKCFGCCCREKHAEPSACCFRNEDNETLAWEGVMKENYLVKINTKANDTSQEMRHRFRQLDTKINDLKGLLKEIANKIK

Target: canine TRPM8 (Canis lupus familiaris, UniProt Q1A7N1)
Test: In Vitro Canine TRPM8 Functional Assay (Ca2+ fluorescence, icilin activation)
Assay type: cell-based
Details: HEK293 cells stably expressing canine TRPM8
Experimental: The functional activity of compounds of the formula (I) was determined by measuring changes in intracellular calcium concentration using a Ca^2+-sensitive fluorescent dye. The changes in fluorescent signal were monitored by a fluorescence plate reader, either a FLIPR™ (Molecular Devices) or FDSS (Hamamatsu). Increases in intracellular Ca^2+ concentration were readily detected upon activation with icilin.
HEK293 cells stably expressing canine TRPM8 were routinely grown as monolayers in Dulbecco's minimum essential medium supplemented with 10% FBS, 2 mM L-glutamine, 100 units/mL penicillin, 100 ug/mL streptomycin and 400 μg/mL G418. Cells were maintained in 5% CO2 at 37° C. […] Cells were challenged with compounds of the formula (I) (at varying concentrations) and intracellular Ca^2+ was measured for 5 min prior to the addition of icilin to all wells to achieve a final concentration that produces approximately an 80% maximal response. […]
Maximal fluorescence intensity (FI) achieved upon addition of icilin was exported from the FLIPR or FDSS software and further analyzed using GraphPad Prism 3.02 (Graph Pad Software Inc., CA, U.S.A.). […] Curves were generated using the average of quadruplicate wells for each data point, were analyzed using nonlinear regression of either sigmoidal dose response or sigmoidal dose response (variable slope).

IC50: 48 nM
SMILES: O=C(C(Nc1ccccc1F)c1cc2cccnc2s1)N1CCCC1c1ccccc1F (stereo not shown)

Structures were worked out from names or drawings and are uncertain.
